Measurements reported in PubChem BioAssay AID1508588 (Peter MacCallum Cancer Centre, 2020).
Test: 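Which gene losses make BRAF-mutant melanoma cells more responsive to vemurafenib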 (primary screen). Cells: human WM266.4 melanoma cells (BRAF V600 mutant). Knock-down reagent: siRNA pool against human genes, 40 nM. Duration: 96 h from transfection to read-out. Treatment: vemurafenib 300 nM (about IC25), added 48 h after transfection, for 48 h; comparison arm got DMSO vehicle only. Detection: 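Ratios to non-targeting siRNA for cell gain, counted as DAPI nuclei after minus before drug and averaged over two replicates, and for absorbance-read medium lactate per cell; both binned into fold-change classes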. Direction: cell gain with vemurafenib: higher = more cell gain than with non-targeting siRNA; lactate per cell with vemurafenib: higher = more lactate made per cell. Active means: 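a knock-down counts as enhancing when its fold-change classes with vehicle and with vemurafenib, taken together, show a stronger drug effect on cell gain or lactate per cell; exact class pairs not stated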. Calls: active = enhances vemurafenib effect; inactive = no enhancement seen.
Here is one part, drawn at random, of about 18,000 deposited reagents. Of all reagents, 790 (4.4%) got an active call. 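Calls rest on a combination of fold-change classes in drug and vehicle arms, not all shown here.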 Unmarked entries are inactive.

gene | cell gain with vemurafenib | lactate per cell with vemurafenib
FOXD1 (forkhead box D1) | 0.18 | 0.52
PRB4 (proline rich protein BstNI subfamily 4) | 1.02 | 0.7
ZNF649 (zinc finger protein 649) | 1.03 | 0.68
ABHD10 (abhydrolase domain containing 10, depalmitoylase) | 0.42 | 1.52
GAGE2C (G antigen 2C) | 0.56 | 0.9
HES4 (hes family bHLH transcription factor 4) | -0.11 | 1.81
CCDC85A (coiled-coil domain containing 85A) | 0.96 | 0.92
TRIML2 (tripartite motif family like 2) | 0.6 | 0.17
XRN1 (5'-3' exoribonuclease 1) | 0.78 | 0.94
ATP2C2 (ATPase secretory pathway Ca2+ transporting 2) | 0.59 | 0.86
FAM153A (family with sequence similarity 153 member A) | 0.8 | 0.34
TBX1 (T-box transcription factor 1) | 0.84 | 0.74
FBXO24 (F-box protein 24) | 0.4 | 0.94
RWDD2B (RWD domain containing 2B) | 1.05 | 0.72
SIX3 (SIX homeobox 3) | 0.5 (active) | 0.46
DNM1L (dynamin 1L) | 0.3 | 0.88
SALL4 (spalt like transcription factor 4) | 0.78 | 1.91
SNTA1 (syntrophin alpha 1) | 0.06 | 0.84
ZKSCAN8 (zinc finger with KRAB and SCAN domains 8) | 0.47 | 1.11
MPHOSPH10 (M-phase phosphoprotein 10) | 0.32 | 0.86
FGF1 (fibroblast growth factor 1) | 0.73 | 0.34
RTP5 (receptor transporter protein 5 (putative)) | 0.71 | 1.01
IFT43 (intraflagellar transport 43) | 0.61 | 1.02
CBL (Cbl proto-oncogene) | 1.04 | 0.64
MIEF1 (mitochondrial elongation factor 1) | 0.39 | 1.44
GRB2 (growth factor receptor bound protein 2) | 0.22 | 2.51
COX20 (cytochrome c oxidase assembly factor COX20) | 0.19 | 1.96
PROSER3 (proline and serine rich 3) | 0.31 | 0.69
BCAR3 (BCAR3 adaptor protein, NSP family member) | 0.36 (active) | 0.04
PTCH2 (patched 2) | 0.43 | 0.55
SRCAP (Snf2 related CREBBP activator protein) | 0.2 | 1.89
PABPC3 (poly(A) binding protein cytoplasmic 3) | 1.05 | 0.53
NOL8 (nucleolar protein 8) | 0.15 (active) | 0.7

Continued, starting with the last 10 of the part before.
gene | cell gain with vemurafenib | lactate per cell with vemurafenib
CBL (Cbl proto-oncogene) | 1.04 | 0.64
MIEF1 (mitochondrial elongation factor 1) | 0.39 | 1.44
GRB2 (growth factor receptor bound protein 2) | 0.22 | 2.51
COX20 (cytochrome c oxidase assembly factor COX20) | 0.19 | 1.96
PROSER3 (proline and serine rich 3) | 0.31 | 0.69
BCAR3 (BCAR3 adaptor protein, NSP family member) | 0.36 (active) | 0.04
PTCH2 (patched 2) | 0.43 | 0.55
SRCAP (Snf2 related CREBBP activator protein) | 0.2 | 1.89
PABPC3 (poly(A) binding protein cytoplasmic 3) | 1.05 | 0.53
NOL8 (nucleolar protein 8) | 0.15 (active) | 0.7
PYCR2 (pyrroline-5-carboxylate reductase 2) | 0.32 | 1.62
OGFOD3 | 0.29 | 1.99
CDC42 (cell division cycle 42) | 0.3 | 0.86
TNXB (tenascin XB) | 0.06 (active) | 0.67
PPP2R5E (protein phosphatase 2 regulatory subunit B'epsilon) | 0.1 | 0.98
H2BC8 (H2B clustered histone 8) | 0.56 | 0.24
S1PR5 (sphingosine-1-phosphate receptor 5) | 0.33 | 0.8
ST6GALNAC6 (ST6 N-acetylgalactosaminide alpha-2,6-sialyltransferase 6) | 1.24 | 0.67
ALDH2 (aldehyde dehydrogenase 2 family member) | 0.5 | 0.51
TUBB1 (tubulin beta 1 class VI) | 0 | 1.56
NREP (neuronal regeneration related protein) | 0.05 | 2.16
CEP44 (centrosomal protein 44) | 0.38 | 1.34
PSENEN (presenilin enhancer, gamma-secretase subunit) | 0.8 | 0.38
REPS2 (RALBP1 associated Eps domain containing 2) | 0.69 | 0.7
ARID3B (AT-rich interaction domain 3B) | 0.12 | 3
ABHD8 (abhydrolase domain containing 8) | 0.88 | 1.02
CEP68 (centrosomal protein 68) | -0.1 | 1.96
BCAS3 (BCAS3 microtubule associated cell migration factor) | 1.02 | 0.86
KRTCAP2 (keratinocyte associated protein 2) | 0.25 | 0.88
TEX19 (testis expressed 19) | 0.35 | 1.1
ELOVL2 (ELOVL fatty acid elongase 2) | 0.56 | 1
SLC22A6 | 0.75 | 0.38
RASL10B (RAS like family 10 member B) | 0.77 | 1.75
OVOL2 (ovo like zinc finger 2) | 0.68 | 0.66
SLC4A11 | 0.78 | 0.78
GRIA4 (glutamate ionotropic receptor AMPA type subunit 4) | 1.15 | 0.46
ENPP6 (ectonucleotide pyrophosphatase/phosphodiesterase 6) | 0.11 | 0.61
DIPK2B (divergent protein kinase domain 2B) | 0.86 | 1.19
HOXB8 (homeobox B8) | 0.32 | 1.13
GPR37 (G protein-coupled receptor 37) | 0.89 | 1.01
CACNA1B (calcium voltage-gated channel subunit alpha1 B) | 0.47 | 1.2
UCP2 (uncoupling protein 2) | 0.56 | 0.42
OPALIN (oligodendrocytic myelin paranodal and inner loop protein) | 0.5 | 0.68
TGM3 (transglutaminase 3) | 0.48 | 0.68
GADD45B (growth arrest and DNA damage inducible beta) | 1.38 | 0.72
CDK17 (cyclin dependent kinase 17) | 0.99 | 0.74
DDTL (D-dopachrome tautomerase like) | 0.82 | 0.98
EMC3 (ER membrane protein complex subunit 3) | 0.24 (active) | 0.58
ALDH8A1 (aldehyde dehydrogenase 8 family member A1) | 0.67 | 0.37
SRSF10 (serine and arginine rich splicing factor 10) | 1.12 | 0.82
TUBA4A (tubulin alpha 4a) | 0.21 | 1.19
CCDC28A (coiled-coil domain containing 28A) | 0.59 | 0.61
SMIM43 (small integral membrane protein 43) | 0.99 | 0.36
DEFA1 (defensin alpha 1) | 0.59 | 0.37
DEFB136 (defensin beta 136) | 0.37 | 0.62
SPAM1 (sperm adhesion molecule 1) | 0.91 | 0.78
IARS1 (isoleucyl-tRNA synthetase 1) | 0.28 | 1.28
TLR8 (toll like receptor 8) | 0.5 | 0.94
SPATA31D1 (SPATA31 subfamily D member 1) | 0.56 | 1.84
CHD1 (chromodomain helicase DNA binding protein 1) | 0.81 | 0.64
S100A16 (S100 calcium binding protein A16) | 0.71 | 0.92
